Reference: patent publication US20020192821A1, “Increased functional activity and/or expression of ABC transporters protects against the loss of dopamine neurons associated with Parkinson's disease” (Active Pass Pharmaceuticals, Inc., priority 2001, published 2002)

Amino acid sequences for entries named in this document (tags omitted). A change or cut given only in a name is not applied to a line headed by its entry.
UniProt Q9H172, whole entry: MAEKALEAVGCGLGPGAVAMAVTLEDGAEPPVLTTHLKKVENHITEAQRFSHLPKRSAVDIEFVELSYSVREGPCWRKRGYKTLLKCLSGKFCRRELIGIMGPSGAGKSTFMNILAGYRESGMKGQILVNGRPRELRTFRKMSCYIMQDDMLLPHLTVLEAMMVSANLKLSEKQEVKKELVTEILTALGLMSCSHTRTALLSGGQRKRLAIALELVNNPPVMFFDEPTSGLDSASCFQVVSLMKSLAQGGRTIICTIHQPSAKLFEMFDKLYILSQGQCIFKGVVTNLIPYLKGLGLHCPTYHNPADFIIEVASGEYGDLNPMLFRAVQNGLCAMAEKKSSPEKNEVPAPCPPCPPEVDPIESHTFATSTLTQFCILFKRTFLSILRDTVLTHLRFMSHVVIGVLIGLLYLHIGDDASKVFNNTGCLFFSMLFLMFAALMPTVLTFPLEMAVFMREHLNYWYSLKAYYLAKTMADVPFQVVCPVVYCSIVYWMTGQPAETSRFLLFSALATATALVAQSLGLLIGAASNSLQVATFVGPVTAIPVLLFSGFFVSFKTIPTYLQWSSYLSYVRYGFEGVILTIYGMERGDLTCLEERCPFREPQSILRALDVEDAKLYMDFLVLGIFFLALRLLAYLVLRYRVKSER
UniProt O15440: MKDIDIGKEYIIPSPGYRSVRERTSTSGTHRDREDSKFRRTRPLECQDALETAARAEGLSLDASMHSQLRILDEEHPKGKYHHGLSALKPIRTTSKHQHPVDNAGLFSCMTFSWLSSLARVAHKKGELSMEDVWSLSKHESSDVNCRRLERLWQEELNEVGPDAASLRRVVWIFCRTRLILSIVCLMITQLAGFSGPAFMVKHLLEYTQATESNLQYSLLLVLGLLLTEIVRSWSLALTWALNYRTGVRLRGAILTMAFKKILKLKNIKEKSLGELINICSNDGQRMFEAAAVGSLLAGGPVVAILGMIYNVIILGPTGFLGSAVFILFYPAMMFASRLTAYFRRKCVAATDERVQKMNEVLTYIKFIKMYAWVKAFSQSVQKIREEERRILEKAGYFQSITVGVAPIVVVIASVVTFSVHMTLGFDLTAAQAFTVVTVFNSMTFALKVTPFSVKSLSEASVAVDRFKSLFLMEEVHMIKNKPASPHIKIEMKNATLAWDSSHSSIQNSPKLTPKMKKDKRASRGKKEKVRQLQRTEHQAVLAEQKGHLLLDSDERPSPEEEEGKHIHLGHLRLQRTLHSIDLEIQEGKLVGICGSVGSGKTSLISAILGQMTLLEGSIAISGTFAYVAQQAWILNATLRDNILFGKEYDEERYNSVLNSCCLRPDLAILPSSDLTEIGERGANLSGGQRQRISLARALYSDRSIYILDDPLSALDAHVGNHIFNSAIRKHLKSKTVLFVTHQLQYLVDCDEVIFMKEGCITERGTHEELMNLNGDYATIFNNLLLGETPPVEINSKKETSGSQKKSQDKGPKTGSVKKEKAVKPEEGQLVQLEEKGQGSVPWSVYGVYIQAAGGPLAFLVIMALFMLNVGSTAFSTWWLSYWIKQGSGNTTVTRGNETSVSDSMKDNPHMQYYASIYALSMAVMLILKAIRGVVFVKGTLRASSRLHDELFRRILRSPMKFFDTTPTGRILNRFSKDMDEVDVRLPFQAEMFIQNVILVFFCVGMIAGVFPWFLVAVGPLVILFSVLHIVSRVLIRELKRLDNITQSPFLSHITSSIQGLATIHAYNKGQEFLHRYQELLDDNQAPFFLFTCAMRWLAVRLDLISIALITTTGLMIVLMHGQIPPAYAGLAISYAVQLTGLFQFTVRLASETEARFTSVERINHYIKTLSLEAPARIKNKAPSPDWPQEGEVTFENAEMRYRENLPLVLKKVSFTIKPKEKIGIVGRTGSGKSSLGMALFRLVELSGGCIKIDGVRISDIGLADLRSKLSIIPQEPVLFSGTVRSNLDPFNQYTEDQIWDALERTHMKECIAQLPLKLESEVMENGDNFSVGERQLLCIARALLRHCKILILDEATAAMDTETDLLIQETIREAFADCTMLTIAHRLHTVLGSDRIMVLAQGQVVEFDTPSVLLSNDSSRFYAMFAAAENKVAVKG

Legend:
[1] = target: T1, ABCG4 transporter (Homo sapiens, UniProt Q9H172); test: Dopamine-induced cytotoxicity (MTT assay) in hDAT cells transiently transfected with ABCG4, in the presence of ABC transporter inhibitors; format: cell-based; conditions: hDAT-SK-N-MC cells transfected with ABCG4, DA 50 μM for 24 hours, glipizide 250 μM or probenecid 500 μM added two hours prior to DA, FIG. 2
T1 construct: expressed in transfected cells; host or cells: hDAT-SK-N-MC (human neuroblastoma SK-N-MC stably expressing hDAT), transient transfection, pCEP4 or pcDNA3.1
Protocol: Constructs were prepared containing a polynucleotide sequence (SEQ ID NO:1) encoding ABCC5 transporter polypeptide (SEQ ID NO:2), a polynucleotide sequence (SEQ ID NO:3) encoding ABCG4 transporter polypeptide (SEQ ID NO:4), and polynucleotide sequences encoding two other ABC transporters, ABCx and ABCy.

[2] = target: ABCC5 transporter (Homo sapiens, UniProt O15440); conditions: hDAT-SK-N-MC cells transfected with ABCC5; DA 50 μM for 24 hours; glipizide 250 μM or probenecid 500 μM added two hours prior to DA; MTT; FIG. 2

Cc1cnc(C(=O)NCCc2ccc(S(=O)(=O)NC(=O)NC3CCCCC3)cc2)cn1 [glipizide]
effect on the protective effect of ABCG4 against dopamine-induced toxicity [1]: reversed the protective effect | effect on the protective effect of ABCC5 against dopamine-induced toxicity [2]: reversed the protective effect
